Results deposited as PubChem BioAssay AID504764 (Drosophila RNAi Screening Center, 2011).
The screen tested about 22,000 reagents; this is a random part of those that have a named target and a result. Over the whole deposit, 403 (1.9%) are marked active. 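Unnormalised raw counts per well; ratio z-scores behind the hit calls and whether each hit raises or lowers signal are not deposited.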 Entries without a mark were called inactive. Names joined by + are all predicted targets of the reagent. Not stated in the record: the amount of reagent.

Aim: 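Knock-downs that raise or lower a Notch target reporter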 (primary screen)
Cells: Drosophila Kc167 cells
Reagent: long dsRNA against Drosophila genes
Duration: about 5 days (4 days dsRNA, then 24 h after transfection)
Treatment: transfection of constitutively active membrane-tethered Notch lacking the extracellular domain, read 24 h later
Detection: 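Firefly luciferase from an E(spl)m3 reporter with active Notch, plus control-promoter and uninduced reporter wells for normalisation; unnormalised counts, duplicate wells a and b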
Scale: induced reporter light, run 1, well a and induced reporter light, run 1, well b: higher = more light from the Notch target reporter with active Notch; control promoter light, run 1, well a and control promoter light, run 1, well b: higher = more light from the viral control promoter (cell number, transfection, viability); uninduced reporter light, run 1, well a: higher = more light from the Notch target reporter without active Notch
Call rule: 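Hit if the duplicate-averaged log2 ratio of induced to control-promoter light gives a plate-wise z beyond ±2, or induced to uninduced beyond ±1.8; weak-control or discordant-duplicate wells dropped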
Calls: active = modifier hit (raised or lowered Notch signal); inactive = not a hit

target gene,dsRNA,"induced reporter light, run 1, well a","induced reporter light, run 1, well b","control promoter light, run 1, well a","control promoter light, run 1, well b","uninduced reporter light, run 1, well a"
TwdlJ,DRSC15812,1.38e5,1.60e5,2.05e5,1.96e5,11680
CadN2 + CG42830,DRSC03062,1.21e5,97320,1.11e5,1.44e5,10600
CadN2 + CG42830,DRSC03063,1.08e5,1.24e5,1.10e5,1.13e5,8185
CadN2 + CG42830,DRSC03064,1.26e5,1.40e5,1.26e5,1.51e5,11390
CR41501,DRSC07785,1.31e5,1.05e5,1.45e5,1.18e5,8995
Sec24CD,DRSC00300,2.29e5,1.80e5,1.96e5,1.89e5,16930
CG7728,DRSC10907,1.13e5,1.27e5,67435,78530,9440
CG15170,DRSC02471,42510,40220,48965,81010,3270
stumps,DRSC13045,1.11e5,1.75e5,1.64e5,1.80e5,10415
stumps,DRSC15332,1.37e5,1.49e5,1.08e5,1.24e5,12505
stumps,DRSC17073,1.13e5,1.04e5,71590,74060,7992
Cdk4,DRSC07358,98935,1.14e5,1.84e5,1.81e5,8000
exd,DRSC20330,93115,90000,90215,85165,11642
GlcT,DRSC04525,1.66e5,1.75e5,1.25e5,1.29e5,10355
Osi3,DRSC12175,1.05e5,1.13e5,72790,79630,6820
lost,DRSC12002,1.89e5,2.36e5,3.29e5,2.89e5,16680
lost,DRSC12234,1.06e5,82095,55300,69440,6635
HtrA2,DRSC16425,2.52e5,2.57e5,1.86e5,1.94e5,16375
dlp,DRSC10281,14030,17575,7488,8685,3880
dlp,DRSC10472,89660,91820,1.02e5,83095,7335
Pp1-87B,DRSC16794,55095,49690,32430,26705,5305
CG7656,DRSC10900,1.80e5,1.63e5,1.65e5,2.13e5,13835
CG9988,DRSC16587,1.53e5,1.23e5,2.14e5,1.97e5,12690
Obp58d,DRSC04162,1.94e5,1.66e5,1.49e5,1.65e5,12955
org-1,DRSC18810,22642,17850,44460,35115,3710
Cyp6a20,DRSC07380,1.56e5,1.58e5,1.70e5,1.71e5,11270
Cyp6a17,DRSC07378,1.54e5,1.60e5,1.58e5,1.48e5,10595
CG16749,DRSC15146,78635,1.06e5,1.45e5,1.17e5,5395
E(z),DRSC11147,64775,75595,69580,25455,6890
Scox,DRSC03117,34460,36675,34350,34785,2138
nst,DRSC09755,1.86e5,2.26e5,1.50e5,90185,17550
CG7295,DRSC00699,1.07e5,1.06e5,1.06e5,58765,8782
CG10730,DRSC02102,52220,50130,59520,55660,4535
CG14752,DRSC06488,1.83e5,1.86e5,2.55e5,2.68e5,15700
CG16786,DRSC04281,1.76e5 (active),1.42e5,1.33e5,1.39e5,9328
CG7910,DRSC16341,73170,90585,69305,71305,5600
CG9485,DRSC04557,71835,89175,61035,67860,6380
Ir84a,DRSC12510,1.08e5,1.31e5,93975,76550,5410
CG13510,DRSC04152,1.93e5,1.86e5,1.51e5,1.67e5,13550
Aos1,DRSC14113,1.09e5,83240,87780,64300,6680
Rbbp5,DRSC11778,1.12e5,1.03e5,69755,62045,4385
CG32365,DRSC10040,2.05e5,2.41e5,2.98e5,2.27e5,13880
CG32365,DRSC10041,8740,8845,11330,9375,4415
CG32365,DRSC10977,21595,19675,10565,12585,16100
Nup44A,DRSC07248,1.04e5,1.03e5,1.06e5,90990,9065
CG3548,DRSC04387,68955,59170,46555,41450,3850
CG15317,DRSC18005,98285,1.08e5,1.31e5,1.60e5,7400
smg,DRSC11397,99505,91505,56505,24582,9355
CG2680,DRSC18466,1.18e5,1.38e5,2.25e5,2.67e5,9120
eIF4H2,DRSC14582,1.17e5,1.24e5,1.43e5,1.38e5,10680
CG9300,DRSC11064,94155,1.14e5,63880,87825,8240
Vha100-1,DRSC14148,2.13e5 (active),2.16e5,1.67e5,1.83e5,11390
CG34450,DRSC17822,1.88e5,1.84e5,2.24e5,2.21e5,12810
mtSSB,DRSC17005,2.71e5,2.32e5,2.52e5,2.30e5,20275
alpha-Man-IIb,DRSC16898,2.23e5,2.55e5,3.32e5,3.63e5,18475
zyd,DRSC20716,95845,91105,95850,1.30e5,10835
Fancd2,DRSC15208,2.24e5,1.86e5,2.00e5,2.18e5,14540
CG30099,DRSC07039,50025,37720,31585,39540,3828
Or83a,DRSC12357,77900,95160,92075,87830,4680
Camta,DRSC06440,89560,78590,58735,44820,8940
Camta,DRSC06441,1.55e5,1.21e5,1.93e5,1.80e5,13120
Camta,DRSC07272,2.24e5,1.47e5,1.37e5,1.59e5,15840
CG14995,DRSC08452,14620,17335,14470,7730,5995
Rpt2,DRSC16799,4615,4985,4065,6700,355

Look-ups from above:
CG9485 [DRSC04557], uninduced reporter light, run 1, well a → 6380
Value of Fancd2 [DRSC15208] under “induced reporter light, run 1, well a”: 2.24e5
CG15170 [DRSC02471], induced reporter light, run 1, well a: 42510
Entry of eIF4H2 [DRSC14582] in “control promoter light, run 1, well b”: 1.38e5
CG9300 [DRSC11064], control promoter light, run 1, well b: 87825
Result of GlcT [DRSC04525] in “induced reporter light, run 1, well b”: 1.75e5
